Here are results for three substances from PMC7156657.

Experiment [1] concerns the target T1, Flag-tagged PROM2 (PROM2-FL, full length) (human) (UniProt Q8N271).
T1 sequence: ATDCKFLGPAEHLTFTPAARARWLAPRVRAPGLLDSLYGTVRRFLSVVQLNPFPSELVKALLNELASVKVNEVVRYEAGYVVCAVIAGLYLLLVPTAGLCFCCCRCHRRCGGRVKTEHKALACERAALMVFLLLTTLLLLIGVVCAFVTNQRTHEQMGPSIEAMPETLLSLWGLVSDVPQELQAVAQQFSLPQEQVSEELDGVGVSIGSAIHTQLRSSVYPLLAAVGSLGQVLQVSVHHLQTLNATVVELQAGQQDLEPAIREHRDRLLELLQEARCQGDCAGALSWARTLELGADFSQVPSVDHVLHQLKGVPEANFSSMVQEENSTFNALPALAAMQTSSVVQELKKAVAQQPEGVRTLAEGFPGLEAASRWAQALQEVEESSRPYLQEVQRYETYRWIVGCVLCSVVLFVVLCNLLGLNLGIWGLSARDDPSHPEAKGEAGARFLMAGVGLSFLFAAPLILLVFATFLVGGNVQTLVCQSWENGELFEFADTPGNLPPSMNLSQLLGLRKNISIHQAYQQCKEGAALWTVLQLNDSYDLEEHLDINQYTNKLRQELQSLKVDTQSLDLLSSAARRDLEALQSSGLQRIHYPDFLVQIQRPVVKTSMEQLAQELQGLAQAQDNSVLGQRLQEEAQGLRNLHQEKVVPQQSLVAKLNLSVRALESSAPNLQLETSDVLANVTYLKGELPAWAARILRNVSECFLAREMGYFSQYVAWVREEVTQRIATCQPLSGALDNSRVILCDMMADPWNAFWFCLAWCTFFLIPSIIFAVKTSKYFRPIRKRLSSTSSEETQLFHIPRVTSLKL
The experiment can be described thus: co-IP; reciprocal; lysates of AsPC-1 transfected with indicated plasmids; lysis buffer 150 mM NaCl, 10 mM HEPES pH 7.4, 1% NP-40; FLAG/HA affinity agarose overnight at 4 °C; western blot. A general note: A western blot detects proteins with antibodies after separation by electrophoresis.

Experiment [2] concerns the target T1, Flag-tagged PROM2 (PROM2-FL, full length) (human). Briefly: co-IP; co-IP with anti-Flag antibody of PROM2 full length and truncations F1-F4; AKT detected.
Experiment [3] has as its target T2, PROM2-F4 (aa 534–634) (human) (UniProt Q8N271).
T2 sequence: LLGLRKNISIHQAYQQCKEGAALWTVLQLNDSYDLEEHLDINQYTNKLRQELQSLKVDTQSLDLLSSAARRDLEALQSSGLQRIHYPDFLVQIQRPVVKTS
Described as above.

Experiment [4] deals with T3, PROM2 F1 (aa 1–634) (human) (UniProt Q8N271).
T3 sequence: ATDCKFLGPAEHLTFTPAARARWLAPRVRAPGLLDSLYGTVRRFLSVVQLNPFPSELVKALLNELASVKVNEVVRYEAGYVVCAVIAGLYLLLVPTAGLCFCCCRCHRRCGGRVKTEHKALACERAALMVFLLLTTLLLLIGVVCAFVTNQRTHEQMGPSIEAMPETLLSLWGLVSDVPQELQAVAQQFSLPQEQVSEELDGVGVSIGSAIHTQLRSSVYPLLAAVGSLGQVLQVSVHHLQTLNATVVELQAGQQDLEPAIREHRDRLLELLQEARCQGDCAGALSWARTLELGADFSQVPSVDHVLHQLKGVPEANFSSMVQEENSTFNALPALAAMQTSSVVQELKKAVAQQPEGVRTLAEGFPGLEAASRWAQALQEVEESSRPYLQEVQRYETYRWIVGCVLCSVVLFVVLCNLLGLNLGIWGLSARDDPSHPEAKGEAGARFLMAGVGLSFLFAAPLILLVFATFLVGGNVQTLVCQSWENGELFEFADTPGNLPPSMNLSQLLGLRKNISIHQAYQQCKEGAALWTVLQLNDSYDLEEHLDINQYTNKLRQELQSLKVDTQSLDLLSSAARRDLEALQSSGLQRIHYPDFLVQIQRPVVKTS
Described as above.

For experiment [5], the target named is T4, PROM2 F2 (aa 1–534) (human) (UniProt Q8N271).
T4 sequence: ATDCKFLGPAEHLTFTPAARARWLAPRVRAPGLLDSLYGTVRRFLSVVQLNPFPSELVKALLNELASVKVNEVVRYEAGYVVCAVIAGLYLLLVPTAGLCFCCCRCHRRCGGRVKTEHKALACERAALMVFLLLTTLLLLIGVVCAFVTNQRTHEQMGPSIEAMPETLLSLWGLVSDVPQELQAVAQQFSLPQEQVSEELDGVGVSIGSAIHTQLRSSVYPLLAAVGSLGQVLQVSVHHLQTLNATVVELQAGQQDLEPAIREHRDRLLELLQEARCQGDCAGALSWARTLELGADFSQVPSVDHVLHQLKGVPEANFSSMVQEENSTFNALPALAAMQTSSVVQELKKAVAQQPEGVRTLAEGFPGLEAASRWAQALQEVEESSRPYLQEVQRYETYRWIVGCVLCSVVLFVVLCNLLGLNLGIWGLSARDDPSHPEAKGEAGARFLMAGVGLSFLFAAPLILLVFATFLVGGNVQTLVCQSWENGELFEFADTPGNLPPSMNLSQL
The description is as above.

For experiment [6], the target named is T5, PROM2 F3 (aa 634–834) (human) (UniProt Q8N271).
T5 sequence: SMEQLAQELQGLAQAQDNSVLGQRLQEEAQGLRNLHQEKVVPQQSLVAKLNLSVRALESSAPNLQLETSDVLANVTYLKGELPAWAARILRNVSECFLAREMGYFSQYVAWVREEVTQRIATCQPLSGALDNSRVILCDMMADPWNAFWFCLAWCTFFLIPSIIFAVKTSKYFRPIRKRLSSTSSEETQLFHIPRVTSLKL
Described as above.

Experiment [7] concerns the target T1, Flag-tagged PROM2 (PROM2-FL, full length) (human). Briefly: co-IP; PROM2-AKT co-IP with PROM2-F4 (aa 534–634) expressed as inhibitor.
For experiment [8], the target named is T6, endogenous PROM2 (human (endogenous in AsPC-1)) (UniProt Q8N271).
T6 sequence: T1 sequence
The experiment can be described thus: co-IP; endogenous proteins in AsPC-1 cells.

In experiment [9] the target is T1, Flag-tagged PROM2 (PROM2-FL, full length) (human). Briefly: far-Western, overlay or dot blot; Flag-PROM2 from transfected AsPC-1 immunoprecipitated by Flag-tag affinity gel, resolved by SDS-PAGE, on PVDF membrane; recombinant GST-AKT added at 5 μg/ml, 4 °C, 18 h; TBST washes; both purified.

No constants are given. Whether binding was seen depends on the method and setting. For part of these data: A result given as binding can be weak or reduced; the word gives no strength. For part of these data: Sequences can lack the tags named with a protein. For part of these data: Binding seen in cells or lysates may run through a third protein.

In the case of HA-Akt, the binding entry in [1] is reported as “binds”; in experiment [2], “binds”; in experiment [3], “binds”; in experiment [4] it was “binds”; in experiment [5] it was “no binding”; in [6], “no binding”. Also, the binding result in experiment [7] is “binds”.
In the case of “endogenous AKT (human (endogenous in AsPC-1))”, the binding result in experiment [8] is listed as “binds”.
recombinant GST-AKT protein: the binding entry in [9] is on record as “binds”.
